Like-named read-outs stand apart in the source and are kept apart here. At least one compound was matched to its structure with a doubt left. Starred links: 1 amine or outer side, 2 acyl side, 3 side chain; linkers in the order of their positions; H or OH if unused. Positions of bridges follow the written chain, without caps; N, C: chain ends. Residues, ends and D or L forms follow the SMILES beside them. CH2COCH2 = O=C(C[*:1])C[*:2]
Molecular target: human IgG1 (Homo sapiens, UniProt P01857)
Experiment: SPR (BIAcore T200) measurement of binding affinity of crosslinked cyclic peptide to immobilized IgG
Description: The affinity analysis was performed by the following method. First, a CM5 sensor chip was installed on BIAcoreT200 (GE healthcare), and 0.4 M 1-ethyl-3-(3-dimethylaminopropyl)carbodiimide (EDC) and a 0.1 M sulfo-N-hydroxysuccinimide (sulfo-NHS) solution mixed in equivalent amounts were injected to the sensor chip at a flow rate of […], to thereby activate the sensor chip. Thereafter, IgG was immobilized onto the sensor chip under a condition of a pH of 5.5 (10 mM Na acetate). An HBS-EP buffer (10 mM HEPES, 150 mM NaCl, 0.005% Tween 20, 3 mM EDTA, pH 7.4) was used in measurement, and 15.625, 31.2, 62.5, 125, 250, and 500 nM of peptides were each injected at a flow rate of […] for 180 seconds, to thereby monitor binding reaction. When dissociation reaction was measured, only the buffer was injected for 600 seconds. The interaction parameter was analyzed with BIAevaluation T100 software.
IgG-binding peptide derivatives compared and evaluated are illustrated in FIG. 1.

Work on CC(C)C[C@@H]1NC(=O)[C@H](CCC(=O)O)NC(=O)CNC(=O)[C@H](CCCNC(=N)N)NC(=O)[C@H](Cc2c[nH]cn2)NC(=O)[C@H](Cc2ccc(O)cc2)NC(=O)[C@H](C)NC(=O)[C@@H](NC(=O)[C@H](CC(=O)O)NC(=O)[C@@H]2CCCN2C(=O)CNC(=O)[C@H](CO)NC(=O)CNC(=O)CNC(=O)[C@H](CO)NC(=O)CN)CSCC(=O)CSC[C@@H](C(=O)N[C@H](C(=O)N[C@@H](Cc2ccccc2)C(=O)N[C@@H](Cc2c[nH]cn2)C(=O)O)[C@@H](C)O)NC(=O)[C@H](Cc2c[nH]c3ccccc23)NC(=O)[C@H](C(C)C)NC1=O [IgG-BP-LongGS 1,3-dichloroacetone] (H-GSGGSGPDCAYHRGELVWCTFH-OH; linker 9-19 via CH2COCH2; N-terminus and C-terminus assumed) yielded a Kd of 4900 nM.

For CC(C)C[C@@H]1NC(=O)[C@H](CCC(=O)O)NC(=O)CNC(=O)[C@H](CCCNC(=N)N)NC(=O)[C@H](Cc2c[nH]cn2)NC(=O)[C@H](Cc2ccc(O)cc2)NC(=O)[C@H](C)NC(=O)[C@@H](NC(=O)[C@H](CC(=O)O)NC(=O)[C@@H]2CCCN2C(=O)CNC(=O)[C@H](CO)NC(=O)CNC(=O)CNC(=O)[C@H](CO)NC(=O)CN)CSSC[C@@H](C(=O)N[C@H](C(=O)N[C@@H](Cc2ccccc2)C(=O)N[C@@H](Cc2c[nH]cn2)C(=O)O)[C@@H](C)O)NC(=O)[C@H](Cc2c[nH]c3ccccc23)NC(=O)[C@H](C(C)C)NC1=O [IgG-BP-LongGS Original] (H-GSGGSGPDCAYHRGELVWCTFH-OH; disulfide 9-19; N-terminus and C-terminus assumed), the Kd was 8 nM and the Kd (listed as original IgG-binding peptide having a disulfide bond) was 8.2 nM.
